This assay deals with T1, GFP-TBK1 (UniProt Q9UHD2).
T1 sequence: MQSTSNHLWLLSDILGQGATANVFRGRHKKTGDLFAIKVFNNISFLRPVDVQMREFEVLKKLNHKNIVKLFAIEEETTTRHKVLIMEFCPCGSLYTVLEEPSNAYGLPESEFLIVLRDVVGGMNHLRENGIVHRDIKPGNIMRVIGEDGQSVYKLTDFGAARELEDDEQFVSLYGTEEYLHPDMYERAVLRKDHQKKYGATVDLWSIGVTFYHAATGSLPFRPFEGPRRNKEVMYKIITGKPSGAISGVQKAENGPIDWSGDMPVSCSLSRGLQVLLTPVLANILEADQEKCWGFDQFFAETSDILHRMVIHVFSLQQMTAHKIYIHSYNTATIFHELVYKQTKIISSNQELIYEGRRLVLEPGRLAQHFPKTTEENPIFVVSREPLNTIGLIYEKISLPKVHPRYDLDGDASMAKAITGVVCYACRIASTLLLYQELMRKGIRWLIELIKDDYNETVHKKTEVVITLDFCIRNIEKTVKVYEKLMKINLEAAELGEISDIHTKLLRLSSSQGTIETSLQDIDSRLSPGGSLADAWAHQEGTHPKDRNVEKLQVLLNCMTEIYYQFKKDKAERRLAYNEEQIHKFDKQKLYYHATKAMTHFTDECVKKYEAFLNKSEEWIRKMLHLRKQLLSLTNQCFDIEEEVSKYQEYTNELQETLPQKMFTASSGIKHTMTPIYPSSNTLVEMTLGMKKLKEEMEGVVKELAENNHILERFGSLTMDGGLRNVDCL
The experiment in a line: co-IP; HEK293T cells expressing GFP-TBK1 together with TBC1D23 WT-mCherry or 3K-mCherry; immunoprecipitation with GFP beads, immunoblot.

Results are given in words; binding and its absence hold for the method and conditions named. Binding seen in cells or lysates may run through a third protein. Sequences can lack the tags named with a protein.

B1: TBC1D23 3K-mCherry (protein, UniProt Q9NUY8-2 1-684)
chain: MAEGEDVPPLPTSSGDGWEKDLEEALEAGGCDLETLRNIIQGRPLPADLRAKVWKIALNVAGKGDSLASWDGILDLPEQNTIHKDCLQFIDQLSVPEEKAAELLLDIESVITFYCKSRNIKYSTSLSWIHLLKPLVHLQLPRSDLYNCFYAIMNKYIPRDCSQKGRPFHLFRLLIQYHEPELCSYLDTKKITPDSYALNWLGSLFACYCSTEVTQAIWDGYLQQADPFFIYFLMLIILVNAKEVILTQESDSKEEVIKFLENTPSSLNIEDIEDLFSLAQYYCSKTPASFRKDNHHLFGSTLLGIKDDDADLSQALCLAISVSEILQANQLQGEGVRFFVVDCRPAEQYNAGHLSTAFHLDSDLMLQNPSEFAQSVKSLLEAQKQSIESGSIAGGEHLCFMGSGREEEDMYMNMVLAHFLQKNKEYVSIASGGFMALQQHLADINVDGPENGYGHWIASTSGSRSSINSVDGESPNGSSDRGMKSLVNKMTVALKTKSVNVREKVISFIENTSTPVDRHVSSSDRVGKPYRGVKPVFSIGDEEEYDTDEIDSSSMSDDDRKEVVNIQTWINKPDVKHHFPCKEVKESGHMFPSHLLVTATHMYCLREIVSRKGLAYIQSRQALNSVVKITSEEEHPELITFKYGNSSASGIEILAIERYLIPNAGDATKAIKQQIMKVLDALES
For the molecule B1, the binding entry is on record as “no binding”.

The values are drawn from article PMC11914254.
